# Laboratory results from PubChem BioAssay AID504467 (National Center for Advancing Translational Sciences (NCATS), 2011).
# The whole screen tested about 330,000 compounds, of which about 7,700 (2.3%) were called active. Inconclusive means that the source gave no clear call. Such entries were picked first, then a sample of the others. The call rests on the fitted dose curve; in most records, active means well fitted inhibition curve with a large enough effect; inconclusive means small, poorly fitted or top-dose-only effect, or effect the other way; inactive means flat fitted curve, though single readings scatter. Where the call is inconclusive, the potency comes from a doubtful curve fit.
# Test: qHTS screen for small molecules that inhibit ELG1-dependent DNA repair in human embryonic kidney (HEK293T) cells expressing luciferase-tagged ELG1; further: nearly all actives have a fitted effect of over 55% in size
# Conditions: HEK293T ELG1-luciferase reporter, luminescence, 16 h, DNA damage induced by 5-fluorouridine; series mostly up to 46.1 µM
# Outline: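 Reporter activity after DNA damage by 5-fluorouridine is monitored. Compound-treated cells incubate 16 hr at 37 °C, then ONE-Glo is added for 30 min before luminescence reading.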
# Potency means the concentration at half of the fitted maximal effect.
row,Structure (SMILES),Potency
1,C/C(CC(=O)N1CCN(C=O)CC1)=N\NC(=O)c1cccc([N+](=O)[O-])c1,inactive
2,CC1(C)COCN1S(=O)(=O)c1ccc(C(=O)Nc2nnc(-c3ccc(Cl)s3)o2)cc1,"inconclusive: 4.11 µM [inhibitor, full curve]"
3,S=c1sc2c(N3CCOCC3)ncnc2n1-c1ccccc1,"inconclusive: 13 µM [activator, partial curve, poor fit]"
4,CCc1cc2c(N=Nc3c(O)[nH]c4ccccc34)ncnc2s1,inactive
5,CCC(C)NC(=O)CSc1nnc(-c2ccc(OC)c(OC)c2)c(-c2ccc(OC)c(OC)c2)n1 (stereo unspecified),"inconclusive: 7.3 µM [inhibitor, partial curve]"
6,CON(C)C(=O)C[C@@H]1C[C@H](OC(=O)c2ccc([N+](=O)[O-])cc2)CN1C(=O)OC(C)(C)C,inactive
7,Cc1cc2ncn(C3CC(=O)N(Cc4ccccc4)C3=O)c2cc1C (stereo unspecified),inactive
8,CCOC(=O)C1CCCN(C(=O)CCCn2nnnc2CN2CCOCC2)C1 (stereo unspecified),"inconclusive: 0.231 µM [inhibitor, full curve, poor fit]"
9,c1csc(-c2nn3c(-c4ccncc4)nnc3s2)c1,inactive
10,CCc1cc2c(CN3CCN(CCO)CC3)cc(=O)oc2cc1O,inactive
11,CC(=O)Nc1ccc(S(=O)(=O)NNC(=O)c2cc3c4ccccc4n(C)c3s2)cc1,"inconclusive: 29.1 µM [inhibitor, single point]"
12,CCOC(=O)/C(=C\c1ccc(OC)c(OC)c1)C(=O)c1cccnc1,"inconclusive: 18.3 µM [activator, partial curve]"
13,CCN1C(Nc2ccccc2)=NC[C@@H]1Cc1ccccc1,"inconclusive: 10.3 µM [activator, partial curve, poor fit]"
14,CCCCNC(=O)CCc1c(C)nc2c(c(C)nn2-c2ccccc2)c1C,inactive
15,CCOC(=O)C1CCN(C(=O)c2cc3c(OC)c(OC)c(OC)cc3[nH]2)CC1,"inconclusive: 20.6 µM [activator, partial curve, poor fit]"
16,CCc1nc(N2CCC3(CC2)OCCO3)c2nnn(Cc3ccccc3)c2n1,"inconclusive: 29.1 µM [inhibitor, single point]"
17,CCN(CC)c1ccc(NC(=O)CSc2ccsc2[N+](=O)[O-])c(C)c1,inactive
18,CCOC(=O)c1ccc(Nc2ncnc3nc[nH]c23)cc1,"inconclusive: 4.61 µM [activator, partial curve, poor fit]"
19,Cc1cccc(-c2nc(CS(=O)CC(=O)N3CCN(C)CC3)c(C)o2)c1 (stereo unspecified),inactive
20,CC1CCC(C(C)C)C(OC(=O)Cn2c(-c3ccc(F)cc3)[n+](C)c3ccccc32)C1 (stereo unspecified),active: 16.4 µM
21,COC(=O)c1cn(NC(=O)c2ccccc2[N+](=O)[O-])c(=O)c2ccccc12,inactive
22,COc1ccc2c(c1)[C@H]1[C@H](CO2)[C@H](c2ccccc2)[C@]2(C)C(=O)N(Cc3ccc(C)cc3)CC(=O)N12,active: 18.3 µM
23,COc1cc([C@@H]2c3cc4c(cc3[C@@H](NC3CCN(Cc5ccccc5)CC3)[C@H]3COC(=O)[C@H]23)OCO4)cc(OC)c1O,"inconclusive: 2.91 µM [inhibitor, partial curve, poor fit]"
24,CC(C)Oc1ccc(C(=O)Nc2ccc(Cl)c(S(=O)(=O)Nc3ccc(Cl)cc3)c2)cc1,"inconclusive: 23.1 µM [inhibitor, partial curve]"

# 2 compounds picked at random from the list so far:
row,Structure (SMILES),Potency
3,S=c1sc2c(N3CCOCC3)ncnc2n1-c1ccccc1,"inconclusive: 13 µM [activator, partial curve, poor fit]"
1,C/C(CC(=O)N1CCN(C=O)CC1)=N\NC(=O)c1cccc([N+](=O)[O-])c1,inactive

# The list goes on:

row,Structure (SMILES),Potency
1,CC(C)=CCN1CCN(Cc2cn[nH]c2C2CCCCC2)CC1CCO (stereo unspecified),inactive
2,O=c1oc2ccccc2c(Nc2ccc(Cl)cc2)c1[N+](=O)[O-],"inconclusive: 25.9 µM [inhibitor, single point]"
3,COc1ccc(CNC(=O)C/C(C)=N/NC(=O)C23CC4CC(CC(C4)C2)C3)cc1,"inconclusive: 29.1 µM [inhibitor, single point]"
4,Cc1ccc(S(=O)(=O)N(C)C)cc1NC(=O)C(C)OC(=O)C1CCC1 (stereo unspecified),inactive
5,CCN1/C(=C\c2ccc3cc(C)ccc3[n+]2CC)Sc2cc(C)c(C)cc21,"inconclusive: 1.83 µM [inhibitor, partial curve]"
6,Cc1ccc(F)cc1NC(=O)N1CCN(C2c3ccccc3-c3ccccc32)CC1,"inconclusive: 29.1 µM [inhibitor, single point]"
7,COc1ccc(-n2cc(-c3ccc(C)cc3)[n+]3c2SCC3)cc1,"inconclusive: 7.31 µM [inhibitor, partial curve]"
8,COc1cccc(CN(C)CC(=O)Nc2sc3c(c2C#N)CCC3)c1OC,active: 11.6 µM
9,CC1CN(C(=O)c2ccc(-c3ccccc3Cl)o2)CC(C)O1 (stereo unspecified),"inconclusive: 2.31 µM [activator, partial curve, poor fit]"
10,Cc1cccc(CS(=O)(=O)c2ncc(Cl)c(C(=O)NCc3ccccc3)n2)c1,"inconclusive: 32.6 µM [inhibitor, single point]"
11,C=CCn1c(SCC(=O)Nc2cc(C)on2)nc2sc3c(c2c1=O)CCCC3,inactive
12,O=C(CSc1nc(C(F)(F)F)cc(=O)[nH]1)N1CCCC1,inactive
13,CCc1ccc(NC(=S)N2CCCCCCC2)cc1,"inconclusive: 20.6 µM [activator, partial curve]"
14,Cc1ccc(N2CC(C(=O)N3CCC4(CC3)CC(=O)c3ccccc3O4)CC2=O)cc1C (stereo unspecified),"inconclusive: 29.1 µM [inhibitor, single point]"
15,COc1ccc(OCC(=O)NC2CCCN(Cc3ccc(Cl)cc3)C2)cc1 (stereo unspecified),active: 8.2 µM
16,COc1ccc(N2C(=O)NC3CC2(C)Oc2ccc(Cl)cc23)cc1OC (stereo unspecified),inactive
17,COc1ccccc1NC(=S)NNC(=O)c1ccc(Cl)cc1Cl,"inconclusive: 11.6 µM [activator, partial curve]"
18,O=C1CCC(C(=O)Nc2cc(C(F)(F)F)ccc2-n2cncn2)=NN1,inactive
19,O=C(Cn1nc(C(F)(F)F)c2c1CCCC2)NC1CCCC1,"inconclusive: 23.1 µM [activator, partial curve, poor fit]"
20,O=C(Cn1cnc2scc(-c3ccccc3)c2c1=O)NCc1ccco1,inactive
21,COc1cc(OC)cc(C(=O)N[C@H](C(=O)OCC(=O)Nc2ccc3c(c2)OCO3)C(C)C)c1,"inconclusive: 20.6 µM [inhibitor, partial curve]"
22,O=C(Nc1nc(-c2ccc(F)cc2)cs1)C1CCN(C(=O)c2ccc(F)cc2)CC1,active: 18.3 µM
23,COc1ccc(NS(=O)(=O)c2cc(NC(=O)c3cncc(Br)c3)ccc2OC)cc1,"inconclusive: 20.6 µM [inhibitor, single point]"
24,COc1ccc(N2CCN(C(=O)Nc3cccc(C(F)(F)F)c3)CC2)cc1,"inconclusive: 11.6 µM [inhibitor, partial curve, poor fit]"

# Reformatted tab-delimited: two of the compounds above.
row	Structure (SMILES)	Potency
16	COc1ccc(N2C(=O)NC3CC2(C)Oc2ccc(Cl)cc23)cc1OC (stereo unspecified)	inactive
17	COc1ccccc1NC(=S)NNC(=O)c1ccc(Cl)cc1Cl	inconclusive: 11.6 µM [activator, partial curve]

# Next structures.

row,Structure (SMILES),Potency
1,Cc1ccc(N=N/C(=C\O)C(=O)c2ccc(Cl)cc2)cc1,inactive
2,Cc1cc(NC(=O)c2sc(Nc3cccc(C(F)(F)F)c3)nc2N)no1,"inconclusive: 35.5 µM [inhibitor, single point]"
3,CC(Sc1nnnn1C)C(=O)Nc1ccccc1 (stereo unspecified),inactive
4,C/C(=N/O)c1ccccn1,inactive
5,O=C(CNC1CCCCC1)NCC1(c2ccccc2)CCCC1,"inconclusive: 10.3 µM [inhibitor, partial curve]"
6,COc1ccc(C)cc1NS(=O)(=O)c1cccc2nonc12,inactive
7,CCc1cccc(N=c2c([N+](=O)[O-])nn(-c3ccc(Cl)cc3)n2O)c1,inactive
8,CCNC(=O)C(=O)Nc1cc2c3c(c1)CCN3C(=O)CC2,"inconclusive: 20.6 µM [activator, partial curve]"
9,CCN(CC)S(=O)(=O)c1ccc(/C=C/C(=O)NC2CCCCC2)cc1,"inconclusive: 29.1 µM [inhibitor, single point]"
10,CC1CN(C(=O)CCNS(=O)(=O)c2ccc(Br)cc2)CC(C)O1 (stereo unspecified),inactive
11,CCn1c2ccccc2c2cc(N=C3SC(CC(=O)Nc4ccccc4OC)C(=O)N3C)ccc21 (stereo unspecified),"inconclusive: 1.16 µM [activator, single point]"
12,O=c1c2c3c(sc2nc2n1CCCCC2)CCC3,"inconclusive: 16.4 µM [activator, partial curve, poor fit]"
13,Cc1cc(/C=N/NC(=O)c2cccs2)c(C)n1-c1cnccn1,"inconclusive: 16.4 µM [activator, partial curve]"
14,COc1ccc(CCC(=O)Nc2sccc2C#N)cc1,"inconclusive: 16.4 µM [activator, partial curve]"
15,CCOC(=O)c1cc(C#N)c(SCc2ccc(C#N)cc2)nc1C,"inconclusive: 29.1 µM [inhibitor, single point]"
16,COc1ccc(C2CC(c3ccc(Cl)cc3)=NN2c2ccc(S(N)(=O)=O)cc2)cc1 (stereo unspecified),inactive
17,CCCCNC(=O)c1onc(CSc2ccc(F)cc2)c1C(=O)O,"inconclusive: 0.731 µM [inhibitor, full curve, poor fit]"
18,CCn1c(=O)c2sccc2n(Cc2cc(C(=O)OC)ccc2OC)c1=O,inactive
19,COc1ccc(S(N)(=O)=O)cc1C(=O)OCC(=O)N1CCCC(C)C1 (stereo unspecified),"inconclusive: 4.61 µM [activator, partial curve, poor fit]"
20,COc1ccc(C(=O)NC(=S)Nc2nnn(C)n2)cc1,"inconclusive: 20.6 µM [activator, partial curve]"
21,COC(=O)c1cc(C(=O)Nc2ccc(S(=O)(=O)NC(C)(C)C)cc2)cc([N+](=O)[O-])c1,"inconclusive: 29.1 µM [inhibitor, single point]"
22,O=C(C1CCC(CNS(=O)(=O)c2cccs2)CC1)N1CCN(c2ccc(F)cc2)CC1 (stereo unspecified),active: 9.2 µM
23,CCCC(=O)N1CCN(c2ccc(NC(=S)NC(=O)c3cccc(C)c3)cc2)CC1,active: 16.4 µM
